Laboratory results reported in article PMC5410337, “Anti-cancer effect of novel PAK1 inhibitor via induction of PUMA-mediated cell death and p21-mediated cell cycle arrest” (Oncotarget, 2017).
Where two headings read alike, the source gives them in different places. No constants are given. Whether binding was seen depends on the method and setting. In cells and extracts the contact can be indirect. Some results given as binding are weak or reduced against the parent protein; the word gives no strength. For some of these results: Sequences can lack the tags named with a protein.

The chains behind the UniProt entries cited, without tags or fusion partners. Where a name states a change or a piece, a line headed by the entry shows the natural chain unless it says otherwise. Residues count along the entry.
UniProt Q13153: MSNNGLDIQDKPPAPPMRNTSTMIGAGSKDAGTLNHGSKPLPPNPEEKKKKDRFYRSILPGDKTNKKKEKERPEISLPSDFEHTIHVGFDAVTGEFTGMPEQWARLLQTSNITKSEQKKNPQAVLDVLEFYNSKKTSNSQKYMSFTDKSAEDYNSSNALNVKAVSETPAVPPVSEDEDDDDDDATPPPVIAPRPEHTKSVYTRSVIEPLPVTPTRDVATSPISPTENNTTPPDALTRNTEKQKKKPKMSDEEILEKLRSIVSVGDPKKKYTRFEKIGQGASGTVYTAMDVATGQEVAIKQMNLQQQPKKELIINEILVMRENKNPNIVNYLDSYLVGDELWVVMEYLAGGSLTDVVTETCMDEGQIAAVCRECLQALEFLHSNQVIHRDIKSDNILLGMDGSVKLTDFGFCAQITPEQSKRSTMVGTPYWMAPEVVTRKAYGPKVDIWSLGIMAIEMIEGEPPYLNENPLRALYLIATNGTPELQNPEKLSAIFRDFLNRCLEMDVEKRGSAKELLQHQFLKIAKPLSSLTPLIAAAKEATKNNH
GST-PAK1 N-terminal domain (residues 70-149): residues 70-149 of Q13153
UniProt P10415: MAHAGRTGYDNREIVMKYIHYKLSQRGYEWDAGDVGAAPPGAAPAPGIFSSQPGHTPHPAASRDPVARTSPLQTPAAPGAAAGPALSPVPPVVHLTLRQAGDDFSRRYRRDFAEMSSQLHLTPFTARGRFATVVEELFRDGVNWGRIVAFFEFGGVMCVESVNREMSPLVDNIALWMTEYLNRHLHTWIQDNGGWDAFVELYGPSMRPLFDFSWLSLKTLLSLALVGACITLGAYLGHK
UniProt P31749: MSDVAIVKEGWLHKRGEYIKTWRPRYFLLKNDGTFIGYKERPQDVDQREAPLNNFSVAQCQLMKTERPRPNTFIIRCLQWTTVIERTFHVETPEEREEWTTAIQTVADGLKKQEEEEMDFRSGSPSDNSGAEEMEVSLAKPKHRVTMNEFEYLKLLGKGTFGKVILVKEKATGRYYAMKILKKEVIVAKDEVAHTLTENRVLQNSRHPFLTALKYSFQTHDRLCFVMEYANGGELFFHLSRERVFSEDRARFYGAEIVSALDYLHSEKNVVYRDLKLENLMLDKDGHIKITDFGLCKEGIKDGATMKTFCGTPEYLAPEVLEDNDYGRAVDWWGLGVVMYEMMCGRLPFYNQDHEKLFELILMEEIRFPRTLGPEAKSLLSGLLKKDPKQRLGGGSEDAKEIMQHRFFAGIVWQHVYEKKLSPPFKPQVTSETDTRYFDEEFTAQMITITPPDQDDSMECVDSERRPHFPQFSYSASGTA
UniProt P38936: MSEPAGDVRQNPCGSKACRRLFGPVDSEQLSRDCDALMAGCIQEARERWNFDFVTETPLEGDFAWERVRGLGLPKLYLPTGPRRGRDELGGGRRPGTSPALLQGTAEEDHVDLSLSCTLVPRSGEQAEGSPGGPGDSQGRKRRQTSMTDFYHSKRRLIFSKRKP

Assays:
[1] = target: GST-PAK1 N-terminal domain (residues 70-149) (human) (UniProt Q13153); assay: pull-down; agarose bead-conjugated GST-PAK1 N-terminal domain (70-149) incubated with transfected cell lysates (PUMA-FLAG in HEK293, or AKT) for 1 hr at 4°C, with DMSO, IPP-14, IPP-23 (5 uM) or AG879 (0.1 mM); western blot; only the target purified
Bcl-2-HA = Bcl-2-HA (UniProt P10415); assay: co-IP; whole cell lysates (RIPA buffer) of HEK293, HCT116 or HCT116 PUMA-deficient cells co-transfected with p21-FLAG and Bcl-2-HA for 24 hr, with or without IPP-14 (1 uM); anti-HA antibody 2 hr at 4°C, protein A/G agarose; blot with anti-FLAG, Actin and HA
[2] = target: GST-PAK1 N-terminal domain (residues 70-149) (human) (UniProt Q13153); assay: pull-down; agarose bead-conjugated GST-PAK1 N-terminal domain (70-149) incubated with transfected cell lysates (PUMA-FLAG in HEK293, or AKT) for 1 hr at 4°C, with DMSO, IPP-14, IPP-23 (5 uM) or AG879 (0.1 mM); western blot; only the target purified; remark: listed apart in the source
[3] = target: PAK1 (immunoprecipitation assay) (UniProt Q13153); assay: co-IP; IP assay of PAK1 and PUMA with a proper antibody and transfected lysates, with or without chemical; bait and constructs not told

AKT1 (from UniProt P31749 1-480) was tested, and the binding [1] was “binds”.

In the case of p21-FLAG (from UniProt P38936 1-164), the binding (Bcl-2-HA) is reported as “binds”.

B1: PUMA-FLAG (protein, UniProt Q9BXH1 1-193)
chain: MARARQEGSSPEPVEGLARDGPRPFPLGRLVPSAVSCGLCEPGLAAAPAAPTLLPAAYLCAPTAPPAVTAALGGSRWPGGPRSRPRGPRPDGPQPSLSLAEQHLESPVPSAPGALAGGPTQAAPGVRGEEEQWAREIGAQLRRMADDLNAQYERRRQEEQQRHRPSPWRVLYNLIMGLLPLPRGHRAPEMEPN
B1 was tested, and the binding [2] was “binds”.

B2: PUMA (immunoprecipitation assay) (protein, UniProt Q9BXH1 1-193)
chain: B1 chain
In the case of B2, the binding [3] is reported as “binds”.
